Values quoted from earlier work in patent publication US7462605B2, “Phosphoramidate compounds and methods of use” (Celmed Oncology (USA), Inc., priority 2002, dated 2008).
At least one compound was matched to its structure with a doubt left.

Molecular target: T1, Lactobacillus casei TS (Lacticaseibacillus casei, UniProt P00469)
T1 sequence (P00469 1-316): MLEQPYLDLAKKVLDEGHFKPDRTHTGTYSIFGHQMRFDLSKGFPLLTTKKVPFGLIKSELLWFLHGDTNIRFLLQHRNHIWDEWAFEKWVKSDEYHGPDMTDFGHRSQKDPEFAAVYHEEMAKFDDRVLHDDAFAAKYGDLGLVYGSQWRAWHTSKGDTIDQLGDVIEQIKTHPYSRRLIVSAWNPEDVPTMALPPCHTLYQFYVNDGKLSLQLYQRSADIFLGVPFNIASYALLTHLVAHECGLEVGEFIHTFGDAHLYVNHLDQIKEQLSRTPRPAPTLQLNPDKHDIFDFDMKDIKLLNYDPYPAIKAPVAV
Details: cited from earlier work

Which Kcat/Km does the source give for `O=c1ccn([C@H]2C[C@H](O)[C@@H](COP(=O)(O)O)O2)c(=O)[nH]1` [dUMP] here?
Its Kcat/Km is 2.1e+06 M⁻¹ s⁻¹.
